# For at least one entry, the source does not settle the construct or the ends of the probe. The comparison behind a weaker result is the experiment's own reference, which may not be listed here. Tags and fusion partners may be left off the protein sequences shown. At least one verdict rests on a figure or table, not on a statement of the authors.
# Molecular target: T1, NF-kappaB p50 (UniProt P19838)
# T1 sequence (looked up, limits assumed): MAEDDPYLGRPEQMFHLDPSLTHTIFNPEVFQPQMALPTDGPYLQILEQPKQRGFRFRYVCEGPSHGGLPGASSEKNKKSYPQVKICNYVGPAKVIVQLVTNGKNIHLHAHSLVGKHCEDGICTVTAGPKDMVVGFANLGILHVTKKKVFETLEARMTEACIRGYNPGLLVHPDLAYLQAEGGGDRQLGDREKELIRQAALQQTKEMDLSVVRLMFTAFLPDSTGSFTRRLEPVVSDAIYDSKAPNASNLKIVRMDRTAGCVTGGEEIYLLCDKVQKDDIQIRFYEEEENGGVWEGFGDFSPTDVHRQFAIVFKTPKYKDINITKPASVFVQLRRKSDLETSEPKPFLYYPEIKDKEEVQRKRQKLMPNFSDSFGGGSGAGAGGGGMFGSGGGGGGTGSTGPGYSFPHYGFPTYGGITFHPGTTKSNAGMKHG
# Assay: EMSA
# Conditions: EMSA: p50 preincubated 15 min with compound, then 15 min with 32P-DNA (Methods: 5 min at room temperature), 6% PAGE, 0.25x TBE, commercial protein, label: 32P 5' end (T4 PNK)
sequence,measurement,setting,value
AATCGTGGAATTTCCTCT (double strand) [IL-8 NF-kB],binding result,"compound 21 (0.01-10 mM) inhibits complex, poly(dI:dC)",binds more weakly
same,binding result,"no inhibitor effect: compound 5 or C. pyramidalis extract inactive, poly(dI:dC)",binds
same,binding result,"reference compound 9i (0.01-10 mM), effect similar to compound 21, poly(dI:dC)",binds more weakly
